PubChem BioAssay AID504786 | Drosophila RNAi Screening Center, 2011
The deposit covers about 21,000 reagents; below is an unselected part of those with a known target gene and a result. 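Primary screen; positive scores mean lost reporter signal, so the sign may be inverted from the usual convention.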 Names joined by + are all predicted targets of the reagent. No sequences are given here.

Screen: 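Knock-downs reducing HIF reporter induction by the iron chelator DFO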 (primary screen)
Cell system: Drosophila S2 cells with a stable HIF luciferase reporter
Reagents: long dsRNA against Drosophila genes, about 0.2 µg dsRNA per well of a 384-well plate
Duration: three days of knock-down, then 20 h of DFO before reading
Conditions: desferrioxamine (DFO) at 100 µM, an iron chelator that mimics hypoxia, for 20 h
Detection: 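HIF reporter luminescence in cells given 100 µM DFO for 20 h, using the mouse ldh-a hypoxia-response element, scored as per-plate z-scores; higher means greater loss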
Scale: z-score: higher = stronger loss of HIF reporter signal

no.	gene knocked down	dsRNA	z-score, replicate 1	z-score, replicate 2	z-score, replicate 3	z-score, replicate 4
1	CG5986	DRSC15931	-0.2	-0.2		
2	Hel25E	DRSC03342	5.1	5.1		
3	CG1486	DRSC20508	-0.2	-0.6		
4	CG8435	DRSC07179	-0.1	0.3		
5	futsch	DRSC17688	-0.2	-0.1		
6	futsch	DRSC17949	-0.3	1.4	-0.2	-0.4
7	futsch	DRSC17952	-0.2	-0.2		
8	futsch	DRSC18543	-0.2	-0.4		
9	Ncc69	DRSC10412	-0.3	-0.4		
10	Ncc69	DRSC10413	0	0.2		
11	spn-B	DRSC17063	-0.1	-0.2		
12	fzr2	DRSC04280	-0.1	-0.5		
13	CR33319	DRSC01826	-0.5	-0.4		
14	GstD4	DRSC16685	-0.4	-0.2		
15	rswl	DRSC06923	-0.3	-0.1		
16	SelG	DRSC19808	-0.4	-0.6		
17	Nmnat	DRSC14644	0.1	-0.7		
18	CG6937 + btn	DRSC16917	-0.1	-0.4		
19	CG34251	DRSC09498	0	-0.3		
20	CG34251	DRSC09500	0.2	-0.1		
21	nom	DRSC16389	-0.4	-0.8		
22	CG3124	DRSC04339	1.3	1.4		
23	CG9967	DRSC00742	0.5	0.9	0.3	0.8
24	Pex13	DRSC06877	-0.3	-0.6		
25	CG15118	DRSC06540	-0.1	-0.2		
26	CG16713	DRSC00477	-0.2	-0.6		
27	CG6689	DRSC16095	-0.4	-0.2		
28	CG32199	DRSC09990	-0.2	-0.4		
29	CG13674	DRSC10033	-0.4	2.3		
30	CG3502	DRSC04381	-0.3	0		
31	CG17658	DRSC04292	-0.2	0		
32	CG34057	DRSC08375	-0.3	-0.3		
33	Sys1	DRSC14372	-0.3	-0.6		
34	l(3)80Fj	DRSC20986	0.5	0		
35	l(3)80Fj	DRSC20989	-0.5	-0.1		
36	Vmat + CG13330	DRSC06365	0.9	-0.6		
37	alpha-Man-IIb	DRSC16898	-0.2	-0.1		
38	mmm	DRSC10208	0	0		
39	Spp	DRSC00328	-0.4	-0.5		
40	Cpr73D	DRSC11084	-0.3	-0.4		
41	CG13000	DRSC19519	0.3	0.1		
42	PH4alphaNE1	DRSC16546	-0.3	-0.1		
43	CG12581	DRSC12206	-0.3	-0.6		
44	CG12581	DRSC12207	-0.3	-0.5		
45	Dhc64C	DRSC08656	-0.3	0.1		
46	Est-P	DRSC11163	-0.3	-0.2		
47	Fkbp59	DRSC03323	-0.1	-0.4		
48	CG5823	DRSC15881	-0.3	-0.2		
49	sut2	DRSC07701	-0.4	-0.3		
50	Alp13	DRSC15781	-0.4	-0.8		
51	Prosalpha3T	DRSC15226	-0.4	-0.1		
52	Ir60e	DRSC04227	-0.2	0		
53	CG5662	DRSC19957	-0.6	-0.3		
54	Psi	DRSC07519	-0.3	-0.2		
55	CG32073	DRSC09087	0	0.2		
56	CG32073	DRSC09894	-0.2	-0.2		
57	scpr-A + scpr-C	DRSC15737	-0.4	0.5		
58	CG17349	DRSC02610	-0.2	-0.2		
59	exd	DRSC20330	-0.3	0.2		
60	CG7542	DRSC10868	-0.2	-0.5		
61	eIF3g2	DRSC14275	-0.1	-0.6		
62	CG34328	DRSC19256	-0.1	-0.1		
63	snoRNA:U31:54Ec + snoRNA:snR38:54Eb + snoRNA:U27:54Eb + 8 more	DRSC06458	-0.1	-0.3		
64	CG9222	DRSC03158	-0.2	-0.2		
65	CG11902	DRSC14434	-0.6	0.3		
66	raptor	DRSC18359	4.7	1.9		
67	CG9308	DRSC04539	-0.1	-0.2		
68	Arc2	DRSC06436	0	0.2		
69	Brd7-9	DRSC03017	1	0.6		
70	CREG	DRSC16595	-0.5	-1		
71	bb8	DRSC15578	-0.1	-0.2		
72	CG31782 (retired record)	DRSC01554	-0.1	0.7		
73	CG31782 (retired record)	DRSC01556	-0.4	-0.7		
74	CG6834	DRSC16125	-0.2	-0.2		
75	Cyp6a13	DRSC07375	-0.4	-0.3		
76	Smyd4-2	DRSC10126	-0.3	-0.5		
77	CG7246	DRSC18422	2.3	0.7		
78	RpL18	DRSC11016	-0.1	0.2	5.1	9.9
79	Cyp12a4	DRSC16620	-1.1	0.5		
80	CG33642	DRSC01325	0.1	0		
81	CG14570	DRSC11731	-0.2	-0.1		
82	Acp26Aa	DRSC01855	-0.2	-0.5		
83	CG42264	DRSC18074	-0.3	-0.6		
84	CG42264	DRSC18075	-0.2	-0.5		
85	CG17751	DRSC15261	-1.3	-0.3		
86	CG8060	DRSC07064	-0.2	-0.6		
87	Nop60B	DRSC04627	-0.1	-0.3		
88	CG10182	DRSC14202	0.3	1.2		
89	CG3062	DRSC18572	-0.3	-0.3		
90	CG13066	DRSC09949	-0.3	-0.8		
91	CG16985	DRSC08501	-0.4	-0.8		
92	CG34256	DRSC09582	1	0.3		
93	Sap47	DRSC16850	-0.2	-0.2		
94	Teh3	DRSC08537	-0.2	-0.3		
95	CG8191	DRSC20091	-0.4	0.4		
96	CG31233	DRSC15888	0.6	-0.1		
97	Mpc1	DRSC14770	-0.2	-0.1		
98	CG10584	DRSC11624	-0.3	-0.6		
99	Cluap1	DRSC20637	-0.5	-0.1		
100	CG7848	DRSC07050	-0.1	0		
101	CG7299	DRSC03043	0	0.2		
102	PolD3	DRSC01961	-0.2	-0.5		
103	ppk30	DRSC15302	-0.5	-0.4		
104	CG13996	DRSC02328	0	-0.5		
105	CG9782	DRSC19145	0.8	0.1		
106	CG9782	DRSC20209	-0.3	0		

Individual results from the entries so far.
CG42264 [DRSC18075], z-score, replicate 1: -0.2
Entry for CG31233 [DRSC15888] in “z-score, replicate 1”: 0.6
Result for CG16985 [DRSC08501] under “z-score, replicate 2”: -0.8
Value of Cpr73D [DRSC11084] under “z-score, replicate 2”: -0.4
Under “z-score, replicate 1”, CG13000 [DRSC19519] has 0.3
Result of CG3124 [DRSC04339] under “z-score, replicate 2”: 1.4
